In the supplement of paper PMC11006884:
Shown are results outside the selection of targets with a hit, which stands elsewhere. This is a noisy data set. This is a selection; strong and weak results do not stand in their true shares.

By UniProt entry, the sequences of proteins in these tests, tags left out. Where a name states a change or a piece, a line headed by the entry shows the natural chain unless it says otherwise.
UniProt Q08AD1: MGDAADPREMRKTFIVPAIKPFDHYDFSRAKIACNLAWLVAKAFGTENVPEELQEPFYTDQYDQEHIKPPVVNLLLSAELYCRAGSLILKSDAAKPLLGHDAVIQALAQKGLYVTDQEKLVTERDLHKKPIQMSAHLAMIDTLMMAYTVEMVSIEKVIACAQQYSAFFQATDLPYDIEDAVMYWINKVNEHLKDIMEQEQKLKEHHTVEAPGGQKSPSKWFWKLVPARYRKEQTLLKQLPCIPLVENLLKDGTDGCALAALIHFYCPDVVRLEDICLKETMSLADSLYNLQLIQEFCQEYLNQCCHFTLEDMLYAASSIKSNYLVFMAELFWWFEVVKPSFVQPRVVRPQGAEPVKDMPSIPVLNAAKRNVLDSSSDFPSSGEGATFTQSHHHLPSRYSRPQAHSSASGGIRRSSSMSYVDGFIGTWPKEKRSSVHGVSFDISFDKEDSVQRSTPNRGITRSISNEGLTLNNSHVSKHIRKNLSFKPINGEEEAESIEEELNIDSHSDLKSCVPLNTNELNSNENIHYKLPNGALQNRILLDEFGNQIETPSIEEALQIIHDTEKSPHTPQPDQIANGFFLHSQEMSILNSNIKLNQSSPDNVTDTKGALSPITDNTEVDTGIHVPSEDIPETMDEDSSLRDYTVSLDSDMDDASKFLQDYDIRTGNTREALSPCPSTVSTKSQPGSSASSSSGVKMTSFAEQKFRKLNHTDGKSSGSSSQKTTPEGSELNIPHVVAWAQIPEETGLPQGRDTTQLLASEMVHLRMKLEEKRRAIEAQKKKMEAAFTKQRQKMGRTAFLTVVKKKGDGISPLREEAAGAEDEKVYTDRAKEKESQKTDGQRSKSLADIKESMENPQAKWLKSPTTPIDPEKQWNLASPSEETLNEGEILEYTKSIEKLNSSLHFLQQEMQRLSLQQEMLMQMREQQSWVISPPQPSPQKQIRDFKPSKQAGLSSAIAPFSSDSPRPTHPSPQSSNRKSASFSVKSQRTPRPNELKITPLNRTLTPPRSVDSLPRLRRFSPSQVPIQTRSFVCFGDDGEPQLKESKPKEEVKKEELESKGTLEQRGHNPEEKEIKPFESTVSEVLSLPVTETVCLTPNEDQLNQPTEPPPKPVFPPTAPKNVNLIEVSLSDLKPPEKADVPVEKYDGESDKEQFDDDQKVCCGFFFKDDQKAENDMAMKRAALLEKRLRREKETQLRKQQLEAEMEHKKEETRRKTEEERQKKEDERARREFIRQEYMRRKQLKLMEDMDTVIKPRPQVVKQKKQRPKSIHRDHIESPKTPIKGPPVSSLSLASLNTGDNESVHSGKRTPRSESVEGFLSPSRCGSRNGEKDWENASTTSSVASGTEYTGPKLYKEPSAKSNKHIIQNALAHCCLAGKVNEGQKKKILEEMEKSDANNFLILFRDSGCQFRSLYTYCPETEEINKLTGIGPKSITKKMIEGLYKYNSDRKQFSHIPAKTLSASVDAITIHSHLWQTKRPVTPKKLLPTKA
UniProt Q10713: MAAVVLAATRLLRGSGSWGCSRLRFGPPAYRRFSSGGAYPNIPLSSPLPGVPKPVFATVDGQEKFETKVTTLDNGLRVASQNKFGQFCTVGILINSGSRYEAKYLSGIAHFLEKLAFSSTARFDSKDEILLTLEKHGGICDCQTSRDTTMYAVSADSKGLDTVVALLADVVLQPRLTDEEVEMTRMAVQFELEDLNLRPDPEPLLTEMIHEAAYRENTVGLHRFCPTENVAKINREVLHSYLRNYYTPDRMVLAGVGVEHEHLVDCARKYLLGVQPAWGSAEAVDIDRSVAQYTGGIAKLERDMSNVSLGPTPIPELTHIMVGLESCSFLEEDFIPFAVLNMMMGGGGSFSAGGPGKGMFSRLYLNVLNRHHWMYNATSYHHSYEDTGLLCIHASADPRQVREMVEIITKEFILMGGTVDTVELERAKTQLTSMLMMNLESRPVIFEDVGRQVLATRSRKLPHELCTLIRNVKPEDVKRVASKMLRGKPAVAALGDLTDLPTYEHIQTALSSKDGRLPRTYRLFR
UniProt Q12905: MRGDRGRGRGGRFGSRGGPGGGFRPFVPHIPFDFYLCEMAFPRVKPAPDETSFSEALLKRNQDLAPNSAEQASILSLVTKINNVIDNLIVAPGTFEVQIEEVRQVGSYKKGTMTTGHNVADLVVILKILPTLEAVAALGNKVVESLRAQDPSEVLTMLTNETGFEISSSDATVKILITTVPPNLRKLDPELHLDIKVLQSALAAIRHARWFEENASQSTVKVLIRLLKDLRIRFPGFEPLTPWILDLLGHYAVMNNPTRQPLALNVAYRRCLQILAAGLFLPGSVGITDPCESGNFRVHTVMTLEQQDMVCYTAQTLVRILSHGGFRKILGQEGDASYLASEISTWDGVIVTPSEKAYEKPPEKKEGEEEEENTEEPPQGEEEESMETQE
UniProt Q12923: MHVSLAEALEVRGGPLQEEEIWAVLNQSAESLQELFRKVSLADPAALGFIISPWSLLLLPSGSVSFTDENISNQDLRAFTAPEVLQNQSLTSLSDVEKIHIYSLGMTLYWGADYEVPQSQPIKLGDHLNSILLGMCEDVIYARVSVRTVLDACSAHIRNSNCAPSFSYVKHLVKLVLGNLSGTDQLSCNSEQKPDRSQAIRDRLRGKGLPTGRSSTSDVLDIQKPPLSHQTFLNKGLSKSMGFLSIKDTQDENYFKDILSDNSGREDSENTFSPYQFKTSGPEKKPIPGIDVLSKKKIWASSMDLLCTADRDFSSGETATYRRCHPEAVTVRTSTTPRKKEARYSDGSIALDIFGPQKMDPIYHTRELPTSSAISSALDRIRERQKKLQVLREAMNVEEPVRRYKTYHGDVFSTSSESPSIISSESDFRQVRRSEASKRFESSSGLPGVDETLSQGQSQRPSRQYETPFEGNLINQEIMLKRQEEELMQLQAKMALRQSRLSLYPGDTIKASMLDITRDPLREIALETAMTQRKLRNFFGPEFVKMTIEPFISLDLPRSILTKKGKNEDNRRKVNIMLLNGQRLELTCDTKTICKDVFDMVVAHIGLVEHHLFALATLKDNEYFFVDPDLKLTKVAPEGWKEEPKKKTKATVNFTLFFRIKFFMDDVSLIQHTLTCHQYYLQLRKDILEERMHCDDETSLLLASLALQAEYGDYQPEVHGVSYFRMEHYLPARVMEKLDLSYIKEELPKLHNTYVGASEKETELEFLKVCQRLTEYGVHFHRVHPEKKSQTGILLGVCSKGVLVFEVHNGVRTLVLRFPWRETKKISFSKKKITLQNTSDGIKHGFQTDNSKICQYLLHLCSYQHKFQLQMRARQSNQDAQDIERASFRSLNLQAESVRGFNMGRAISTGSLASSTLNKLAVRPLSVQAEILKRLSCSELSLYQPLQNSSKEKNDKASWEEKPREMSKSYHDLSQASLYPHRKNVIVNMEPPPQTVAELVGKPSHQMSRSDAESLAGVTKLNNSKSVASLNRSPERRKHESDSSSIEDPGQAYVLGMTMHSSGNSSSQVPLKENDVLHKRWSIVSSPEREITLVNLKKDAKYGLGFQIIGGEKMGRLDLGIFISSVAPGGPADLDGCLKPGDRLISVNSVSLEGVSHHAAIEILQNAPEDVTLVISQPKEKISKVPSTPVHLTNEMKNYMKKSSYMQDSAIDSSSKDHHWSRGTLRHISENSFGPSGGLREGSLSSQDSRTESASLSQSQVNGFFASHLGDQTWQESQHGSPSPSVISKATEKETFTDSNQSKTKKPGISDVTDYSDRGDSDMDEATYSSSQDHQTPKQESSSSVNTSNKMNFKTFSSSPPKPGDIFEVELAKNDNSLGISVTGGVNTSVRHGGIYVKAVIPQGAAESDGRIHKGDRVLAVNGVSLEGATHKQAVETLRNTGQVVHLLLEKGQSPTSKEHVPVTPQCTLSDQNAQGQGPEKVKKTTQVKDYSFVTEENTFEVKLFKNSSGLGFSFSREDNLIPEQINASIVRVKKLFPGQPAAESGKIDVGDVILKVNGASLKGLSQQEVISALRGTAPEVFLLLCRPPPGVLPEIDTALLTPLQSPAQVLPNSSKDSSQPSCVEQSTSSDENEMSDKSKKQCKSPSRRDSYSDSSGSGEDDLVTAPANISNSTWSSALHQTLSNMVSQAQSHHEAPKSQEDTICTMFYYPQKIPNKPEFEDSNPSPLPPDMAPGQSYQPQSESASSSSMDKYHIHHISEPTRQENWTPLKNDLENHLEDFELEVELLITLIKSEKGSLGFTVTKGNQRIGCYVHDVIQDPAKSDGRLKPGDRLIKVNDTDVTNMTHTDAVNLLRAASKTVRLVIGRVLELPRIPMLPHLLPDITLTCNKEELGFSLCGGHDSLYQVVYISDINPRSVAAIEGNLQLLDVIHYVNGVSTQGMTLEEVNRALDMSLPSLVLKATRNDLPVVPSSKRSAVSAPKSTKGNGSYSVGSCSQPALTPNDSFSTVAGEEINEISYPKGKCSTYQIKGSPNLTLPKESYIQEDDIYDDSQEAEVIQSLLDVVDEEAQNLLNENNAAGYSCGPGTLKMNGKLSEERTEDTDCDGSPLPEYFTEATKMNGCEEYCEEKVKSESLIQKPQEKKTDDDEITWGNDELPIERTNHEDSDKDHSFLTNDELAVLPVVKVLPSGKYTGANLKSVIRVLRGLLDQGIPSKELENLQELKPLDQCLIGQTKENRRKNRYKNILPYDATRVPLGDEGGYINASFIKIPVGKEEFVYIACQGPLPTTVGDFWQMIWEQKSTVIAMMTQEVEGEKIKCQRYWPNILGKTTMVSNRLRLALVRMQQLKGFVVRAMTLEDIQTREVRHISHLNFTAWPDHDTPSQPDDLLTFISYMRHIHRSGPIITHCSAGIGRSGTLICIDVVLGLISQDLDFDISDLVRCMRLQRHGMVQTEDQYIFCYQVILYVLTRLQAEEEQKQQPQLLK
UniProt Q13111, whole entry, looked up: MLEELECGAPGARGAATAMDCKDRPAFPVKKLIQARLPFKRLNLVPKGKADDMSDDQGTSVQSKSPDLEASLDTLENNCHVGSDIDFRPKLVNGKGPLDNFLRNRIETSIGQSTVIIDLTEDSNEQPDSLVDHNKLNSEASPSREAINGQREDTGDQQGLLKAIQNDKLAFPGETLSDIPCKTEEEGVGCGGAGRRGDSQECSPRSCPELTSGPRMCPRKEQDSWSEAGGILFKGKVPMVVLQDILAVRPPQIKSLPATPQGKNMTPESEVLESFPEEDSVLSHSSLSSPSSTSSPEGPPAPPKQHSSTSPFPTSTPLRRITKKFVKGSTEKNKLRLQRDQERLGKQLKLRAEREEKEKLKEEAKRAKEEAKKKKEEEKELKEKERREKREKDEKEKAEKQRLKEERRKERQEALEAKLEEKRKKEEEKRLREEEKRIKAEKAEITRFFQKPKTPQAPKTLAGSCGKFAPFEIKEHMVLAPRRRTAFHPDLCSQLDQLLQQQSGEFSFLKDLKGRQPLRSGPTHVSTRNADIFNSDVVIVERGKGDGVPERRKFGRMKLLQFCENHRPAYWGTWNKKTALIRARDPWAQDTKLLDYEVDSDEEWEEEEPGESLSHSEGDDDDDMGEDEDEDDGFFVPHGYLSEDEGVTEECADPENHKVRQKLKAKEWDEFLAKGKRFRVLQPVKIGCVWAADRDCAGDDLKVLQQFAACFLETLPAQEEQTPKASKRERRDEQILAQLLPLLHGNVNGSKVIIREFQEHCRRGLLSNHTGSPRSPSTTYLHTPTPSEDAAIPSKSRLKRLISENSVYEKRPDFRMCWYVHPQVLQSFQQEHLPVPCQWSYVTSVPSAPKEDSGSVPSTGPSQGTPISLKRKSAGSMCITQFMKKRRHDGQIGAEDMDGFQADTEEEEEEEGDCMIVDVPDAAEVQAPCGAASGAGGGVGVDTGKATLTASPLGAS
UniProt Q13418: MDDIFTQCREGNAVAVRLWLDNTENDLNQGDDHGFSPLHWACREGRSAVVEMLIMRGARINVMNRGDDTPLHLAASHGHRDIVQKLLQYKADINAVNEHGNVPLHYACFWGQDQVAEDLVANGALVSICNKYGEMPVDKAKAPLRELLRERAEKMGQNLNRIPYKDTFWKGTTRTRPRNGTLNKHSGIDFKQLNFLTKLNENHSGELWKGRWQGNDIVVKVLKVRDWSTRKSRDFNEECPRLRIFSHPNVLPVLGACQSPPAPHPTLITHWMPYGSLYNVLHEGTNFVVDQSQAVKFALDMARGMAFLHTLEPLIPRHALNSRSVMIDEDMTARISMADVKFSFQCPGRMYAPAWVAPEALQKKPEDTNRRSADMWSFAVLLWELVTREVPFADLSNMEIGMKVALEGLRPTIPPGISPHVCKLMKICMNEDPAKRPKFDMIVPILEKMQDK

Compound: COC(=O)/C=C/c1ccccc1 [methyl cinnamate]
Experiment: log2 ratio of iodoacetamide-alkyne labeling of the cysteine site, DMSO over compound (competition); higher = stronger covalent engagement of the cysteine by the compound, active = 1 or more
Settings: 500 µM; treatment time 1 h; system: HEK293T cell lysate
Outline: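 Electrophile (500 µM) or vehicle was added to HEK293T lysate (2 mg/mL) for 1 h at ambient temperature before iodoacetamide alkyne labelling (1 h) and click coupling to sCIP-TMT reagents. After pooling, overnight trypsin digestion at 37 °C, streptavidin enrichment and acid elution, peptides were measured by Orbitrap Eclipse LC-MS/MS with FAIMS and quantified in FragPipe. Each cysteine's log2 competition ratio compares mean control-channel with mean compound-channel reporter intensity, control over compound. Data came from duplicate channels across three replicates, excluding cysteines quantified in only one replicate.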

log2 ratio of iodoacetamide-alkyne labeling, inactive:
RLF C1055 (UniProt Q13129) 0.496, PDE3B C767 (UniProt Q13370) -0.198, CAMSAP2 C1416 (UniProt Q08AD1) 0.14, UniProt Q13131_C185 0.414, PMPCA C466 (UniProt Q10713) 0.00833, NFX1 C295 (UniProt Q12986) 0.392, EIF4G1 C1384 (UniProt Q04637) -0.0782, DLX2 C230 (UniProt Q07687) 0.127, TARDBP C50 (UniProt Q13148) 0.0628, CSTF3 C646 (UniProt Q12996) 0.353, SF3A3 C437 (UniProt Q12874) -0.0887, IFIT5 C476 (UniProt Q13325) 0.142, CEBPZ C282 (UniProt Q03701) 0.14, TRAF2 C112 (UniProt Q12933) 0.166, DHX9 C1029 (UniProt Q08211) 0.0938, KLC1 C55 (UniProt Q07866) 0.338, UniProt Q12905_C271 0.122, UniProt Q12768_C21 0.417, PTPN13 C937 (UniProt Q12923) 0.338, PTPN11 C318 (UniProt Q06124) 0.394, CHAF1A C492 (UniProt Q13111) 0.161, EHHADH C559 (UniProt Q08426) 0.144, NCBP1 C36 (UniProt Q09161) 0.176, PABPC4 C132 (UniProt Q13310) 0.0719, UniProt Q0D2I5_C349 0.304, CHAF1A C465 (UniProt Q13111) 0.211, EP300 C1163 (UniProt Q09472) 0.124, AHNAK C108 (UniProt Q09666) 0.364, AP1B1 C921 (UniProt Q10567) 0.277, FLII C46 (UniProt Q13045) 0.0684, ILK C346 (UniProt Q13418) 0.184, G3BP1 C73 (UniProt Q13283) 0.243, SNTB2 C374 (UniProt Q13425) 0.117, NCBP1 C261 (UniProt Q09161) -0.108, EIF2B5 C335 (UniProt Q13144) 0.0311, PSMD2 C459 (UniProt Q13200) -0.0843, GTF3C1 C431 (UniProt Q12789) 0.164
